# Laboratory results published in patent US20100021940A1, “Method for Determining the Activity of a Protease in a Sample” (ASTRAZENECA AB, priority 2006, published 2010).
# Where “and” joins values, the source holds several entries; their conditions need not be identical. Equal entries are not always repeated. The source gives many values for each of these; only a part stands here.
# Tested on: MMP9
# Assay: MMP9 activity in whole blood via 4-nitroaniline in plasma after zymosan stimulation (LC-MS)
# Type: biochemical, human
# Conditions: individual subjects, substrate 10 μM in plasma, 37° C., 60 min
# Experimental: Samples of heparinised whole blood (1 mL) were stimulated with Zymosan (0, 50, 300, 600, 900 and 1200 μg/mL), vortexed or and incubated at 37° C. for 15 minutes. Plasma was collected after centrifugation, mixed with the substrate (10 μM) and incubated at 37° C. for 60 minutes. Methanol (300 μL), with (^13C)6-4-nitroaniline (1 μM) as internal standard, was added to a 100 μL aliquot of the above mixture and centrifuged to remove precipitated proteins. The supernatant (100 μL) was diluted with water (100 μL) and the extracts was injected directly onto a HPLC column.
# Thaw, as required, pooled control human plasma, quality control and test samples. Add methyl 1-acetyl-L-prolyl-L-leucylglycyl-α-R-(4-nitrophenylamino)-glycyl-L-leucyl-β-alaninate (2 μL, solution D) to test plasma sample (200 μL) in 2 mL screw cap microtubes and mix on a vortex mixer.
# Incubate tubes for 60 minutes at 37° C. in a shaking water bath. Prepare the calibration samples in plasma as detailed in Table 1 during the 60 minute incubation of test samples in step 3. Mix the samples on a vortex mixer.
# Manually dispense aliquots (100 μL) of each plasma sample into separate wells of a 96 deep-well 2 mL plate using an appropriate pipette. (Note: start pipetting calibration, quality control and blank samples approximately 10 minutes before the test samples have finished their incubation in step 3). Dispense internal standard in methanol (300 μL) into each well using the Tecan. Cover the plate with polystyrene cover. Centrifuge at 3000 rpm for 5 minutes at room temperature.
# Transfer an aliquot (100 μL) of the sample supernatant into separate wells of a 96 deep-well 2 mL plate using the Tecan. Mix water (100 μL) with each sample in the wells of a 96 deep-well polypropylene plate using the Tecan. Cover plate with pre-spilt 96 well seal.
# Analyse 10 μL aliquots by LC/MS.
# Whole blood samples were stimulated with varying concentrations of zymosan (0, 50, 300, 600, 900 and 1200 μg/mL). Plasma sample obtained from the stimulated whole blood samples were mixed with the substrate methyl 1-acetyl-L-prolyl-L-leucylglycyl-α-R-(4-nitrophenylamino)-glycyl-L-leucyl-β-alaninate at a plasma concentration of 10 μM and the samples were then incubated at 37° C. for 60 minutes. Aliquots (100 μL) of the human plasma were mixed with methanol (300 μL) containing [^13C]6-4-nitroaniline as an internal standard to precipitate the proteins and the sample was centrifuged and supernatants (100 μL) were mixed with water (100 μL). The extracts 10 μL were injected directly onto a Phenomenex Luna phenyl-hexyl column (50×2.0 mm, 5 μm) and the compounds eluted with a gradient mobile phase consisting of 0.01% ammonia/methanol. 4-nitroaniline was resolved from endogenous plasma constituents and the HPLC effluent was directed into the mass spectrometer via a heated nebuliser interface in negative mode. 4-nitroaniline and [^13C]6-4-nitroaniline were detected using single ion monitoring of the [M-H]^− ions at the mass to charge ratio of m/z 137 and 143 respectively. The method is described above.
# The method is validated over the range 0.0500 to 10.0 μM for 4-nitroaniline based on the analysis of a 100 μL plasma sample. Quality control samples at concentrations of 0.100, 2.00 and 8.00 μM 4-nitroaniline were included to determine the acceptability of each analysis batch. The limit of quantification (LOQ) of the method is 0.0500 μM 4-nitroaniline for a 100 μL aliquot of plasma.
structure (smiles),measurement,setting,value
"COC(=O)CCNC(=O)[C@H](CC(C)C)NC(=O)[C@@H](NC(=O)CNC(=O)[C@H](CC(C)C)NC(=O)[C@@H]1CCCN1C(C)=O)Nc1ccc([N+](=O)[O-])cc1 [Example 1.1, Methyl 1-acetyl-L-prolyl-L-leucylglycyl-α-R-(4-nitrophenylamino)-glycyl-L-leucyl-β-alaninate]",4-nitroaniline concentration,"COPD patients, visit 3, zymosan 0 μg",0.128 μM and 0.111 μM and 0.124 μM and 0.212 μM and 0.0914 μM and 0.162 μM and 0.139 μM and 0.138 μM and 0.114 μM and 0.137 μM (2×) and 0.115 μM and 0.0647 μM and 0.243 μM and 0.0851 μM and 0.0527 μM and 0.118 μM and 0.165 μM and 0.140 μM and 0.0827 μM
same,4-nitroaniline concentration,"COPD patients, visit 3, zymosan 50 μg",1.05 μM (2×) and 2.06 μM and 2.19 μM and 1.59 μM and 1.37 μM and 1.20 μM and 1.89 μM and 2.48 μM and 2.00 μM and 2.89 μM and 1.55 μM and 2.01 μM and 2.71 μM and 0.927 μM and 0.281 μM and 0.969 μM and 1.00 μM and 1.30 μM and 1.01 μM
same,4-nitroaniline concentration,"COPD patients, visit 3, zymosan 300 μg",2.59 µM and 4.99 µM and 4.83 µM and 3.53 µM and 4.29 µM and 2.10 µM and 3.29 µM and 5.21 µM and 2.27 µM and 3.73 µM and 5.39 µM and 4.39 µM and 3.91 µM and 6.38 µM and 2.01 µM and 1.17 µM and 2.52 µM and 2.41 µM and 2.95 µM and 3.26 µM
same,4-nitroaniline concentration,"COPD patients, visit 3, zymosan 600 μg",2.82 μM and 5.53 μM (2×) and 5.39 μM and 4.37 μM and 5.06 μM and 2.57 μM and 4.58 μM and 5.75 μM and 2.92 μM (2×) and 4.74 μM and 5.89 μM and 4.14 μM and 7.73 μM and 1.82 μM and 3.46 μM and 3.45 μM and 3.90 μM and 4.10 μM
same,4-nitroaniline concentration,"COPD patients, visit 3, zymosan 900 μg",3.11 µM and 6.55 µM and 5.89 µM and 4.66 µM and 5.97 µM and 2.88 µM and 4.97 µM and 6.29 µM and 3.33 µM and 5.36 µM and 6.13 µM and 6.16 µM and 4.50 µM and 8.39 µM and 3.07 µM and 1.82 µM and 3.95 µM and 3.83 µM and 3.96 µM and 4.64 µM
same,4-nitroaniline concentration,"COPD patients, visit 3, zymosan 1200 μg",3.21 µM and 6.14 µM and 5.62 µM and 4.58 µM and 5.89 µM and 2.58 µM and 5.06 µM and 6.10 µM and 2.67 µM and 4.38 µM and 6.04 µM and 5.92 µM and 4.15 µM and 8.93 µM and 3.02 µM and 1.95 µM and 3.88 µM and 4.14 µM and 4.66 µM and 4.63 µM
same,4-nitroaniline concentration,"COPD patients, visit 4, zymosan 0 μg",0.179 μM and 0.0951 μM and 0.138 μM and 0.243 μM and 0.110 μM (2×) and 0.217 μM and 0.125 μM (2×) and 0.115 μM and 0.143 μM and 0.134 μM and 0.185 μM and 0.0984 μM and 0.219 μM and 0.0972 μM and 0.109 μM and 0.157 μM and 0.139 μM and 0.0844 μM
same,4-nitroaniline concentration,"COPD patients, visit 4, zymosan 50 μg",1.48 μM (2×) and 1.25 μM and 1.88 μM and 1.84 μM and 2.11 μM and 1.34 μM and 2.16 μM and 1.58 μM and 1.20 μM and 1.67 μM and 1.18 μM (2×) and 1.44 μM and 1.87 μM and 2.33 μM and 2.15 μM and 0.675 μM and 0.589 μM and 0.891 μM
same,4-nitroaniline concentration,"COPD patients, visit 4, zymosan 300 μg",3.18 µM and 2.95 µM and 3.95 µM and 3.77 µM and 3.61 µM and 2.63 µM and 3.71 µM and 3.74 µM and 3.01 µM and 4.12 µM and 4.14 µM and 4.77 µM and 4.03 µM and 5.86 µM and 0.789 µM and 1.95 µM and 1.56 µM and 2.27 µM and 2.79 µM and 3.35 µM
same,4-nitroaniline concentration,"COPD patients, visit 4, zymosan 600 μg",3.67 µM and 3.49 µM and 4.75 µM and 4.63 µM and 4.45 µM and 2.99 µM and 4.23 µM and 4.58 µM and 3.55 µM and 4.62 µM and 5.28 µM and 5.90 µM and 4.83 µM and 6.52 µM and 2.76 µM and 2.62 µM and 2.18 µM and 2.82 µM and 3.01 µM and 3.79 µM
same,4-nitroaniline concentration,"COPD patients, visit 4, zymosan 900 μg",4.18 μM (2×) and 3.70 μM and 5.05 μM and 5.26 μM and 4.58 μM and 3.30 μM and 4.42 μM and 4.90 μM and 4.06 μM and 4.94 μM and 5.13 μM and 6.15 μM and 5.14 μM and 7.33 μM and 3.18 μM and 2.91 μM and 2.99 μM and 3.14 μM and 3.59 μM
same,4-nitroaniline concentration,"COPD patients, visit 4, zymosan 1200 μg",3.79 µM and 3.85 µM and 4.85 µM and 4.91 µM and 4.43 µM and 3.47 µM and 4.87 µM and 5.22 µM and 4.06 µM and 5.42 µM and 5.50 µM and 6.49 µM and 5.33 µM and 7.40 µM and 3.39 µM and 3.49 µM and 3.16 µM and 3.42 µM and 3.62 µM and 4.22 µM
same,4-nitroaniline concentration,"healthy volunteers, visit 4, zymosan 0 μg",0.111 µM and 0.0866 µM and 0.152 µM
same,4-nitroaniline concentration,"healthy volunteers, visit 4, zymosan 50 μg",0.796 µM and 0.751 µM and 1.00 µM
same,4-nitroaniline concentration,"healthy volunteers, visit 4, zymosan 300 μg",2.28 µM and 1.65 µM and 2.77 µM
same,4-nitroaniline concentration,"healthy volunteers, visit 4, zymosan 600 μg",2.91 µM and 1.92 µM and 2.96 µM
same,4-nitroaniline concentration,"healthy volunteers, visit 4, zymosan 900 μg",3.43 µM and 2.09 µM and 3.17 µM
same,4-nitroaniline concentration,"healthy volunteers, visit 4, zymosan 1200 μg",3.60 µM and 3.38 µM and 2.26 µM and 3.20 µM
same,4-nitroaniline concentration,"smokers, visit 3, zymosan 0 μg",0.113 µM and 0.107 µM and 0.109 µM and 0.0861 µM and 0.176 µM and 0.239 µM and 0.0779 µM and 0.339 µM and 0.116 µM and 0.131 µM
same,4-nitroaniline concentration,"smokers, visit 3, zymosan 50 μg",0.769 µM and 1.11 µM and 1.12 µM and 0.862 µM and 3.00 µM and 1.02 µM and 0.406 µM and 3.01 µM and 2.15 µM and 1.10 µM
same,4-nitroaniline concentration,"smokers, visit 3, zymosan 300 μg",2.05 μM and 2.56 μM and 3.14 μM and 2.21 μM and 6.36 μM and 2.68 μM (2×) and 1.18 μM and 6.45 μM and 4.19 μM
same,4-nitroaniline concentration,"smokers, visit 3, zymosan 600 μg",2.31 µM and 3.48 µM and 3.72 µM and 2.75 µM and 7.70 µM and 3.39 µM and 1.70 µM and 7.79 µM and 4.93 µM and 3.27 µM
same,4-nitroaniline concentration,"smokers, visit 3, zymosan 900 μg",2.68 µM and 3.61 µM and 3.91 µM and 3.16 µM and 8.43 µM and 3.82 µM and 1.82 µM and 8.61 µM and 5.09 µM and 3.36 µM
same,4-nitroaniline concentration,"smokers, visit 3, zymosan 1200 μg",2.43 µM and 3.68 µM and 4.25 µM and 3.23 µM and 8.30 µM and 4.01 µM and 1.64 µM and 8.66 µM and 5.13 µM and 3.37 µM
same,4-nitroaniline concentration,"smokers, visit 4, zymosan 0 μg",0.0729 µM and 0.0973 µM and 0.182 µM and 0.108 µM and 0.128 µM and 0.195 µM and 0.0588 µM and 0.279 µM and 0.131 µM and 0.165 µM
same,4-nitroaniline concentration,"smokers, visit 4, zymosan 50 μg",1.17 µM and 1.92 µM and 1.54 µM and 0.742 µM and 1.52 µM and 1.21 µM and 0.341 µM and 4.57 µM and 2.16 µM and 1.45 µM
same,4-nitroaniline concentration,"smokers, visit 4, zymosan 300 μg",2.29 µM and 3.43 µM and 2.99 µM and 2.30 µM and 4.52 µM and 2.59 µM and 0.91 µM and 7.93 µM and 3.57 µM and 2.65 µM
same,4-nitroaniline concentration,"smokers, visit 4, zymosan 600 μg",2.48 µM and 3.64 µM and 3.41 µM and 2.54 µM and 5.50 µM and 3.43 µM and 1.1 µM and 8.74 µM and 3.92 µM and 2.87 µM
same,4-nitroaniline concentration,"smokers, visit 4, zymosan 900 μg",2.86 µM and 4.06 µM and 3.56 µM and 3.18 µM and 6.30 µM and 3.86 µM and 1.38 µM and 9.12 µM and 4.48 µM and 3.10 µM
same,4-nitroaniline concentration,"smokers, visit 4, zymosan 1200 μg",2.82 µM and 4.22 µM and 3.53 µM and 3.71 µM and 6.49 µM and 4.23 µM and 1.42 µM and 9.95 µM and 4.81 µM and 2.95 µM
